Some of the results follow.
Key:
Experiment in all cases: log2 fold change, soluble protein after heating vs DMSO (PISA); higher = thermal stabilisation; K562 cells, 10 uM, 30 min; active = over 0.2 and 3.5 SD of the protein, either way, in both replicates (recomputed)
[1] = compound: C1=CC=C(C=C1)[C@H](COC2=CC3=C(C=C2)NC(=O)N3)NC(=O)C4=CC=CN(C4=O)CC5=CC(=C(C=C5)F)F
Summary of the method: (§1)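 Quantification of soluble protein used TMTpro 16plex LC-MS/MS, with channel sums equalised. Samples were the supernatant after 21,000xg for 90 min of pooled aliquots from K562 cells (2×10^6 cells/mL) treated with 10 μM compound for 30 min, heated for 3 min over 48°C-58°C, and extracted in PBS with 0.5% NP-40 at 4°C. Values, from duplicates, describe thermal stability against control samples on a log2 fold-change scale.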

Protein sequences, listed by entry. Tags and fused reporters are not part of them. Lines headed by an entry give the natural chain unless they say otherwise; changes in a name come on top.
UniProt O43736: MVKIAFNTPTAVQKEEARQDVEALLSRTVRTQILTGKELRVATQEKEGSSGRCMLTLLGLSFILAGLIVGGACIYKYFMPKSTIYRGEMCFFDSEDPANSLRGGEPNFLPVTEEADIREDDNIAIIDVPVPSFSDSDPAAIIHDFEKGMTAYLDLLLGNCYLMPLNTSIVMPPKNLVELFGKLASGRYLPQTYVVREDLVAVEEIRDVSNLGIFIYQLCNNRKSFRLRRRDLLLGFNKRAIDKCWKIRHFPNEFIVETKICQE
UniProt O15357: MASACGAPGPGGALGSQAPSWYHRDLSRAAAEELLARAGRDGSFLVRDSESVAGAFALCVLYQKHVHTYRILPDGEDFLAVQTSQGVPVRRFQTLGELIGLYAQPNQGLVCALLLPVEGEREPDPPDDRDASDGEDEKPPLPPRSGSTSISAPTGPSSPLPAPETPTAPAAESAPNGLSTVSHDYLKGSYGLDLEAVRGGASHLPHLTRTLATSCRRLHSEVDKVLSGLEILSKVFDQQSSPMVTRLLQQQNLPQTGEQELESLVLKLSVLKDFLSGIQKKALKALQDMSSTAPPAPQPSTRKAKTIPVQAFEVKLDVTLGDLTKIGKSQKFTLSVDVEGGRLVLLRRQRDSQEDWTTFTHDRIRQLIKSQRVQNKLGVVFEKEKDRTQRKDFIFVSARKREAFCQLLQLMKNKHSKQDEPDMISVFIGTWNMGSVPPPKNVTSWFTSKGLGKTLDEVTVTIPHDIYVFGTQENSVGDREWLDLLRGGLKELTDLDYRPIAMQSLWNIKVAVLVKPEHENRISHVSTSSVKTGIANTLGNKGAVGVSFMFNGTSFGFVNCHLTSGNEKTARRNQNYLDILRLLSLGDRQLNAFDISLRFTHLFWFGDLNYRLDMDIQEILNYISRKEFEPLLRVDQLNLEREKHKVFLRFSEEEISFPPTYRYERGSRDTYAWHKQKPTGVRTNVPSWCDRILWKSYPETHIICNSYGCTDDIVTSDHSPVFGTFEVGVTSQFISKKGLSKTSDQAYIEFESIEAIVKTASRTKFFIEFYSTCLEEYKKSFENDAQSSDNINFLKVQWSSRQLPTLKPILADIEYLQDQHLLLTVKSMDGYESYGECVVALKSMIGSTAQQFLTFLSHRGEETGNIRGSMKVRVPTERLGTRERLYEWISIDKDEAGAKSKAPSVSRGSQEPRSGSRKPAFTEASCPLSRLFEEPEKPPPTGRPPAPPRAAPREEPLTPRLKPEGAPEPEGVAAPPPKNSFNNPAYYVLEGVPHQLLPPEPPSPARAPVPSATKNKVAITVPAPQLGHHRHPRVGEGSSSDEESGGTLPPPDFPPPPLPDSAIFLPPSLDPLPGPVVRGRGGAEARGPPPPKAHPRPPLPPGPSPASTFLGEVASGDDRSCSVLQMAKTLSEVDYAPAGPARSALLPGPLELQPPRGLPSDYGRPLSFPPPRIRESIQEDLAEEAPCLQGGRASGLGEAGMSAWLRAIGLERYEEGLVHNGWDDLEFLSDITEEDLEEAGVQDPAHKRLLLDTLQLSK
UniProt Q5VWK5: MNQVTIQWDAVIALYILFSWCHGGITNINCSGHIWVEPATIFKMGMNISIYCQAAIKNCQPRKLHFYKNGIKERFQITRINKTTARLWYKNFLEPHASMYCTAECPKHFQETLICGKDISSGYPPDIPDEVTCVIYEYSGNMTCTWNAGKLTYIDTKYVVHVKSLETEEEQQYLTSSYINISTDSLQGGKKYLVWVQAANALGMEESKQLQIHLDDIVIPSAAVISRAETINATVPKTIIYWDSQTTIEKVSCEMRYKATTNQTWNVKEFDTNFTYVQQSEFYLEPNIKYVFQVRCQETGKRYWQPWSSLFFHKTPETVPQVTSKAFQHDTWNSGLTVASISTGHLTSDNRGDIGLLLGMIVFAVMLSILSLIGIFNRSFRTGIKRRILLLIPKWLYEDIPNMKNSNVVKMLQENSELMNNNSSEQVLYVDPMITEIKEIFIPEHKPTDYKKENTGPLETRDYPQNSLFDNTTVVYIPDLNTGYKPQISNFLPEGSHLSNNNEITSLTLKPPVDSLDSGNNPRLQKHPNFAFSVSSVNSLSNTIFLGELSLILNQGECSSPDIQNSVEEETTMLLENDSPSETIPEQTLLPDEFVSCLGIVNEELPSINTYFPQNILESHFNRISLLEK
UniProt Q9Y6K9, whole entry, looked up: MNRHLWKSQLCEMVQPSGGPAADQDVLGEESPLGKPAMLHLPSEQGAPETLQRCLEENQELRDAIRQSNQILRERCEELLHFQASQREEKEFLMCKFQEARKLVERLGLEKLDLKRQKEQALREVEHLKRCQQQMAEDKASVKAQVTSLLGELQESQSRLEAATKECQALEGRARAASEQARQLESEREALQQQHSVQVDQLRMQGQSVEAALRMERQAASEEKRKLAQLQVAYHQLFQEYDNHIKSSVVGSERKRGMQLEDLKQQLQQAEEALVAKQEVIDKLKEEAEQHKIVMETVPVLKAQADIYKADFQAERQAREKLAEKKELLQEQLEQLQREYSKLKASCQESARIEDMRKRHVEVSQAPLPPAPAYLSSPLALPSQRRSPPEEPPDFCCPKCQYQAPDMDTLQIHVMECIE
UniProt Q9BUE6: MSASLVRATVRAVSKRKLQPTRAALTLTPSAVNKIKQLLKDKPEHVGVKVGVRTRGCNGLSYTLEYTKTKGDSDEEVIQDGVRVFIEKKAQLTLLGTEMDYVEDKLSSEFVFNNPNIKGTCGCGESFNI
UniProt Q14653: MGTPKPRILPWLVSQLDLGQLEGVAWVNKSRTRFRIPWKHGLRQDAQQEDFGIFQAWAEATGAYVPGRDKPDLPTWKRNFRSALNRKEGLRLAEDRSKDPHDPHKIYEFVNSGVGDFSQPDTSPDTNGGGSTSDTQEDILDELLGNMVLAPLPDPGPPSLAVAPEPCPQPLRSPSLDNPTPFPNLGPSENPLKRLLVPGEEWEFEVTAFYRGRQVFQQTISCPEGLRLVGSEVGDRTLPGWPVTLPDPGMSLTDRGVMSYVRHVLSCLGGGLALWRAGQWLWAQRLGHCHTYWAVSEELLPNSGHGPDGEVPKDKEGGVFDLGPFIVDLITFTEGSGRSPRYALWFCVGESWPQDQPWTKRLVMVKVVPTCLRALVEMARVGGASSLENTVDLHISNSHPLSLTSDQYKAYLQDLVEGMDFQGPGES
UniProt O00458: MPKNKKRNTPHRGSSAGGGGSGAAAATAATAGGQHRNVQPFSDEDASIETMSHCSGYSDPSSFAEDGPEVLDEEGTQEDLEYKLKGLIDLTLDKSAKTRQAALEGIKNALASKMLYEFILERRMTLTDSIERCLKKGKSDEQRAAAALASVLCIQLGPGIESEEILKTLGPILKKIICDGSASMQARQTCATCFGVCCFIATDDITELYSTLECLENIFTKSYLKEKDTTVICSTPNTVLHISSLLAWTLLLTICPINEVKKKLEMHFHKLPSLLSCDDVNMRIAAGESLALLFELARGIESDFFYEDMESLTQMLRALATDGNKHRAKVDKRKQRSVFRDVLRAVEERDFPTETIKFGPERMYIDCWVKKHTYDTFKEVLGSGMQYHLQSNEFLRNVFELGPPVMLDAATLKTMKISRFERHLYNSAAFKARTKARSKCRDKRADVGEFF
UniProt Q969R8: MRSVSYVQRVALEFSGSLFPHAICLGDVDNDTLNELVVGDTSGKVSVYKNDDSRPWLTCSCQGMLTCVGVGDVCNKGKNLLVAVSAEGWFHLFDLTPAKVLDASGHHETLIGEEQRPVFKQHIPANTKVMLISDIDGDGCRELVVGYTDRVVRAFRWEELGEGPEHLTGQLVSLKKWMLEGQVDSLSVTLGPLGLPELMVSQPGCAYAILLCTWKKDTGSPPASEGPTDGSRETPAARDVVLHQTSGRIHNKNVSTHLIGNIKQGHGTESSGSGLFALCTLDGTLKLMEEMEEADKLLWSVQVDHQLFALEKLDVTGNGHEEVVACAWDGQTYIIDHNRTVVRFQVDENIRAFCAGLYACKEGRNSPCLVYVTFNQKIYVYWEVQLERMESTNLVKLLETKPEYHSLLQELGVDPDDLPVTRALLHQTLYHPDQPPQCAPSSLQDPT
UniProt Q12905: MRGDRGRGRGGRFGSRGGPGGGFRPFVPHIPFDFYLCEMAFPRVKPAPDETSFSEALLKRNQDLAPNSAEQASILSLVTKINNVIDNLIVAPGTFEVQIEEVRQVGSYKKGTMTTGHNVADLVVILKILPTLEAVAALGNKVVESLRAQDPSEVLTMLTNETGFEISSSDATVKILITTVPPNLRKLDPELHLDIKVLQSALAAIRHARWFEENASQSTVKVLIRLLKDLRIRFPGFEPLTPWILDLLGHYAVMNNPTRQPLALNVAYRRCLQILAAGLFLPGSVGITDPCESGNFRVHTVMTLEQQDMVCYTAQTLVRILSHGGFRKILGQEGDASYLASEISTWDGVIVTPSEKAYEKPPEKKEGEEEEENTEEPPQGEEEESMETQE

[2] = compound: CC1=C(SC2=C1C(=N[C@H](C3=NN=C(N32)C)CC(=O)N)C4=CC=C(C=C4)Cl)C
Summary of the method: as §1

[3] = compound: CC1=C2C(=CC=C1)N=C(N(C2=O)C3=CC=CC=C3C)CN4C=NC5=C(N=CN=C54)N
Summary of the method: as §1

[4] = compound: Cc1sc2c(c1C)C(c1ccc(Cl)cc1)=N[C@@H](CC(=O)OC(C)(C)C)c1nnc(C)n1-2
Summary of the method: as §1

[5] = compound: c1ccc([C@@H]2C[C@H]2NC2CCNCC2)cc1
Summary of the method: as §1

Measured: log2 fold change

ITM2A (UniProt O43736)
inactive: [1] 0.013 | [2] -0.03 | [3] -0.019 | [4] 0.058 | [5] 0.098

INPPL1 (UniProt O15357)
inactive: [1] -0.121 | [2] 0.01 | [3] 0.071 | [4] 0.101 | [5] -0.044

IL23R (UniProt Q5VWK5)
inactive: [1] -0.324 | [2] 0.096 | [3] 0.073 | [4] 0.093 | [5] 0.139

IKBKG isoform 2 (UniProt Q9Y6K9)
inactive: [1] 0.049 | [2] -0.04 | [3] 0.002 | [4] -0.005 | [5] 0.022

ISCA1 isoform 2 (UniProt Q9BUE6)
inactive: [1] 0.059 | [2] -0.025 | [3] -0.119 | [4] -0.107 | [5] 0.021

IRF3 (UniProt Q14653)
inactive: [1] -0.049 | [2] 0.123 | [3] 0.015 | [4] -0.007 | [5] -0.01

IFRD1 (UniProt O00458)
inactive: [1] -0.011 | [2] -0.069 | [3] 0.049 | [4] 0.02 | [5] 0.004

Copied from above (2 entries):
IKBKG isoform 2 (UniProt Q9Y6K9)
inactive: [1] 0.049 | [2] -0.04 | [3] 0.002 | [4] -0.005 | [5] 0.022

ISCA1 isoform 2 (UniProt Q9BUE6)
inactive: [1] 0.059 | [2] -0.025 | [3] -0.119 | [4] -0.107 | [5] 0.021

(further entries)

ITFG2 (UniProt Q969R8)
inactive: [1] 0.084 | [2] 0.176 | [3] 0.168 | [4] 0.076 | [5] 0.045

ILF2 (UniProt Q12905)
inactive: [1] 0.047 | [2] -0.078 | [3] -0.141 | [4] 0.14 | [5] 0.034
